Experimental findings from article PMC2784748 are described below.

Amino acid sequences for entries named in this document (tags omitted).
UniProt Q07666: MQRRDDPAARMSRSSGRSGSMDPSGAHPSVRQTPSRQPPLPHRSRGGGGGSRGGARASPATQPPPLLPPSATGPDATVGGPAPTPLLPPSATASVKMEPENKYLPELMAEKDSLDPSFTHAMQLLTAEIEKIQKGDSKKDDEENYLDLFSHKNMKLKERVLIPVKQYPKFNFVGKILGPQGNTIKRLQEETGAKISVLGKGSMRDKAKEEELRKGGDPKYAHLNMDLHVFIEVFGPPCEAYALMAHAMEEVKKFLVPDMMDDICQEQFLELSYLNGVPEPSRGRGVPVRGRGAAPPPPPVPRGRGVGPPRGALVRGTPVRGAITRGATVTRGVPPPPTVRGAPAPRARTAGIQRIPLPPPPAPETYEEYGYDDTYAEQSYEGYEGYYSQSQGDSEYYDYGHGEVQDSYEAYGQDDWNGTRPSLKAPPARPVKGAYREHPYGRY
UniProt P38159: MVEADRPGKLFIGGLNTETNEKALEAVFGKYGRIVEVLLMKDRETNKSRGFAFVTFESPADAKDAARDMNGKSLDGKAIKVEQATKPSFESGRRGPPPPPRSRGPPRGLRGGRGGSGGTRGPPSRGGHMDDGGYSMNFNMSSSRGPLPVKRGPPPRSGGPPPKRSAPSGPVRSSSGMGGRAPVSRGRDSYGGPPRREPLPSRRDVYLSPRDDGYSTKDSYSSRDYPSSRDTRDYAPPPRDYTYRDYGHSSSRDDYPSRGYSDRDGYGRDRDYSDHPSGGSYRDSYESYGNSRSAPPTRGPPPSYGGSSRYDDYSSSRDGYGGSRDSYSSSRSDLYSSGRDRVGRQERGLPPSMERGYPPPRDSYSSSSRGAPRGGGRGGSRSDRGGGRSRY

The target in the test is Sam68 (Src-associated in mitosis 68 kDa) (human (endogenous in LNCaP)) (UniProt Q07666). Briefly: affinity purification with mass spectrometry; endogenous Sam68 immunoprecipitated from LNCaP cell nuclear extracts with anti-Sam68 rabbit antisera on Dynabeads Protein A; SDS-PAGE, Coomassie-stained bands excised, trypsin, MALDI-TOF peptide mass fingerprinting, Mascot search.

No constants are given. Whether binding was seen depends on the method and setting. In cells and extracts the contact can be indirect. A yes stands for co-enrichment or nearness to the bait. Other partners may have been found.

On to “heterogeneous nuclear ribonucleoprotein G (from UniProt P38159 1-391)”, for which the binding entry is listed as “binds”.
